{"source": "PubChem BioAssay AID1347426", "about": "(Functional Genomics Laboratory (NCATS/FGL), 2020)", "note": "Screen size: about 31,000 sequences; about 1,400 (4.5%) were called active.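 How the source made its calls: active means median seed-adjusted z-score above 1 or below -1; inactive means the rest.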 The list shows a part of the results.", "data": [{"assay": "Novel Modifiers of Survival Motor Neuron (SMN) Protein: Gene Identification via Genome-wide siRNA Screen;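 further: luminescence tracks full-length SMN protein made from the SMN2 reporter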", "settings": "HEK293T SMN2-luciferase reporter, siRNA knockdown, 72 h; actives lie on both sides", "how_it_was_run": "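HEK293T cells stably expressing an SMN2 splicing/cDNA-luciferase reporter were reverse-transfected with a druggable-genome siRNA library and read by luminescence at 72 hours; hits defined by MAD score above 1.0 or below -1.0.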", "values": [{"sequence": "GCAGCGUGUUUUUCCGGAATT against RP2", "median seed-adjusted z-score": "inactive: -0.655"}, {"sequence": "AAACCACACUAGGCAAAGATT against TAF9", "median seed-adjusted z-score": "inactive: 0.829"}, {"sequence": "CCUUCUCCGUGAUUGAGGATT against LGI4", "median seed-adjusted z-score": "inactive: -0.239"}, {"sequence": "CCAUGGGAAUGUUGCUGAATT against HPX", "median seed-adjusted z-score": "inactive: -0.451"}, {"sequence": "CAUAGAUGAUGCAAAGGUATT against MINPP1", "median seed-adjusted z-score": "inactive: -0.0107"}, {"sequence": "GUGGAGUAGGAAAACAUAATT against TCEAL1", "median seed-adjusted z-score": "inactive: -0.263"}, {"sequence": "CUCCAUCUAUCUUCCCUGATT against PRELP", "median seed-adjusted z-score": "inactive: -0.0579"}, {"sequence": "CCUCUCUAGUAAUGCAAGATT against NAT12", "median seed-adjusted z-score": "inactive: -0.0807"}, {"sequence": "GUACGGAUGCUGGACGGUATT against PCSK4", "median seed-adjusted z-score": "inactive: 0.828"}, {"sequence": "CCACAAACAUUACCCUGGATT against TBXA2R", "median seed-adjusted z-score": "inactive: 0"}, {"sequence": "GCACAGUUUGUAAACUGGATT against ELA2", "median seed-adjusted z-score": "inactive: 0.586"}, {"sequence": "CGGACACUAUUAUCACUAATT against DUSP6", "median seed-adjusted z-score": "inactive: 0"}, {"sequence": "AGCUAGGCCUGGAUAUCGATT against KRT83", "median seed-adjusted z-score": "active: 1.15"}, {"sequence": "UAUGAGUUGUUGUUGGGAATT against NSUN5", "median seed-adjusted z-score": "inactive: 0.118"}, {"sequence": "GGAUUUCGUGUACCAGUUUTT against HLA-DQB1", "median seed-adjusted z-score": "inactive: 0.454"}, {"sequence": "CGAGUGAUUAGGUACAUGATT against AP4B1", "median seed-adjusted z-score": "inactive: 0.0278"}, {"sequence": "GCUUUACAUUGACAAUCCATT against CPVL", "median seed-adjusted z-score": "inactive: 0.334"}, {"sequence": "GAAACUUGUUAAAGACAUUTT against ZFAND1", "median seed-adjusted z-score": "inactive: -0.272"}, {"sequence": "GCUCUGCUCUAGACGUGAATT against IL31RA", "median seed-adjusted z-score": "inactive: 0.36"}, {"sequence": "CCAUUUGAGGUGAACCGUATT against RFWD3", "median seed-adjusted z-score": "inactive: 0.554"}, {"sequence": "CCAUCUUGGUAAUGCCCAUTT against HTR1D", "median seed-adjusted z-score": "inactive: -0.155"}, {"sequence": "CAGUGAAUGUGGAAGUUGUTT against ZNF501", "median seed-adjusted z-score": "inactive: 0.19"}, {"sequence": "GAACCCACCAUACAAGUUUTT against SYT11", "median seed-adjusted z-score": "inactive: 0.29"}, {"sequence": "UGAUCGCAGGAGUAUCUUUTT against TRPV1", "median seed-adjusted z-score": "inactive: -0.12"}, {"sequence": "GAGUCACAAUUGAUCCGGATT against TOP2A", "median seed-adjusted z-score": "inactive: -0.187"}, {"sequence": "GAACAUUGUUCGACUGCUATT against GCKR", "median seed-adjusted z-score": "inactive: 0.454"}, {"sequence": "GAUUAUCAAUUACCCACAUTT against MMP26", "median seed-adjusted z-score": "inactive: 0.0881"}, {"sequence": "GUCUGUGCUCAGUCAAAUATT against CCT6B", "median seed-adjusted z-score": "inactive: 0"}, {"sequence": "GAAGCUCCCUUUACAUCAUTT against HEPACAM", "median seed-adjusted z-score": "inactive: -0.063"}, {"sequence": "CAUCUACACCAGUAGCAUATT against HSD3B1", "median seed-adjusted z-score": "inactive: -0.145"}, {"sequence": "CCAUAGGGCUGUCGGAUUATT against FRMD4B", "median seed-adjusted z-score": "inactive: -0.567"}, {"sequence": "GAGGAUCAGUUGCUAUGAATT against PFKFB3", "median seed-adjusted z-score": "inactive: -0.133"}, {"sequence": "GGAUCAGUAUGGGCAAAGATT against CALB1", "median seed-adjusted z-score": "inactive: 0.191"}, {"sequence": "AGCCUCUCCUAUUCCCGAATT against PSMD3", "median seed-adjusted z-score": "inactive: 0.47"}, {"sequence": "GGCCGAACAUUACAGAACATT against PYGL", "median seed-adjusted z-score": "inactive: 0.166"}, {"sequence": "CAGUCAAAAUUAACCUGUUTT against RPE65", "median seed-adjusted z-score": "inactive: -0.655"}, {"sequence": "GACUGAGAGUUGGAUCAAATT against TRPM8", "median seed-adjusted z-score": "inactive: 0.405"}, {"sequence": "CUCUCGACGUGUUCAUUUATT against RAB20", "median seed-adjusted z-score": "inactive: -0.334"}, {"sequence": "CGAUUAAGCUCUACCUAAATT against CACNA2D3", "median seed-adjusted z-score": "inactive: 0.198"}, {"sequence": "CAUGUGCAGUACAUCCAUATT against TIMP3", "median seed-adjusted z-score": "active: -1.05"}, {"sequence": "GGACUUCUUUGAAAAACCUTT against CSNK1G1", "median seed-adjusted z-score": "inactive: -0.255"}, {"sequence": "ACGGGCACCUGGAAAUUCATT against CRX", "median seed-adjusted z-score": "inactive: -0.156"}, {"sequence": "CAGGUAGCAUGGACCUUAATT against RPP25", "median seed-adjusted z-score": "inactive: 0"}, {"sequence": "GUAUAUUAUGUGAGGCAAATT against LRRC3B", "median seed-adjusted z-score": "inactive: 0"}, {"sequence": "CUAUGUUCAUCGACUGGUUTT against BRAP", "median seed-adjusted z-score": "inactive: 0.267"}, {"sequence": "CGGAGAAUCUCUUGUCUUATT against NEUROD2", "median seed-adjusted z-score": "inactive: -0.103"}, {"sequence": "GGAUGAAGAAGUUCGGCAATT against GLRX3", "median seed-adjusted z-score": "inactive: 0.0784"}, {"sequence": "ACAAGUUCGUGUGCAAAGATT against LHX5", "median seed-adjusted z-score": "inactive: -0.414"}, {"sequence": "GUCUACCAAUGAAAAGAGATT against TFEC", "median seed-adjusted z-score": "inactive: -0.0734"}, {"sequence": "CCCUAGAGUAUUACACGGATT against DGKD", "median seed-adjusted z-score": "inactive: 0.35"}, {"sequence": "CCGUUGCUAUGAACAAGUUTT against B4GALT3", "median seed-adjusted z-score": "inactive: -0.138"}, {"sequence": "GAUCUGAACACGUACCUCATT against PICK1", "median seed-adjusted z-score": "inactive: -0.136"}, {"sequence": "GUCACCUUCUUUAACCUCATT against HRH3", "median seed-adjusted z-score": "inactive: 0.276"}, {"sequence": "CAAAGACUCUGGAAUGAAUTT against PRICKLE2", "median seed-adjusted z-score": "active: -1.12"}, {"sequence": "CAGUUACUCCAAUUCGUUUTT against ZNF266", "median seed-adjusted z-score": "inactive: 0.426"}, {"sequence": "CGAUCGACUCGGUGACUUUTT against COL7A1", "median seed-adjusted z-score": "active: 1.08"}, {"sequence": "GGGUACCGAGGAUCGCUUUTT against LAMA5", "median seed-adjusted z-score": "inactive: 0.229"}, {"sequence": "CAUCAUCCAUGGUAGCUUUTT against DUOX1", "median seed-adjusted z-score": "active: -1.09"}, {"sequence": "GGAAAGUCCUGUUUGAUCATT against RHBDL3", "median seed-adjusted z-score": "inactive: 0.56"}, {"sequence": "GAGUGGGACCUGAAGCCUATT against ALDH4A1", "median seed-adjusted z-score": "inactive: 0.0362"}, {"sequence": "GAAGUGGAAUGCUGAAGAATT against CHRND", "median seed-adjusted z-score": "inactive: -0.112"}, {"sequence": "GGUGCGCAACUCUACAUGATT against PSMA3", "median seed-adjusted z-score": "inactive: -0.81"}, {"sequence": "AGAGGAUUCUAGAAGCUGATT against RXRG", "median seed-adjusted z-score": "inactive: 0.16"}, {"sequence": "CCCUGAAUCUUGUUACAGATT against PRICKLE1", "median seed-adjusted z-score": "inactive: -0.486"}, {"sequence": "GAAUCAUCCCAACAUAGUUTT against MARK2", "median seed-adjusted z-score": "inactive: 0.664"}, {"sequence": "GGUAGAAUCUAGGUAUGCATT against RAD51", "median seed-adjusted z-score": "inactive: 0.594"}, {"sequence": "GUAUCUAAGAGAUAUGGAATT against ORC5L", "median seed-adjusted z-score": "inactive: -0.126"}, {"sequence": "GGUACUCGGUGGAAACCAATT against CNKSR3", "median seed-adjusted z-score": "inactive: 0"}, {"sequence": "GCUGUGCAACCAGAACAAATT against SCNN1A", "median seed-adjusted z-score": "inactive: -0.137"}]}]}
